Binding signal data for 42 sequences are collected here from paper PMC7819943, “Rice protein-binding microarrays: a tool to detect cis-acting elements near promoter regions in rice”.

By UniProt entry, the sequences of proteins in these tests, tags left out.
UniProt Q0JBA9, entry or part of it: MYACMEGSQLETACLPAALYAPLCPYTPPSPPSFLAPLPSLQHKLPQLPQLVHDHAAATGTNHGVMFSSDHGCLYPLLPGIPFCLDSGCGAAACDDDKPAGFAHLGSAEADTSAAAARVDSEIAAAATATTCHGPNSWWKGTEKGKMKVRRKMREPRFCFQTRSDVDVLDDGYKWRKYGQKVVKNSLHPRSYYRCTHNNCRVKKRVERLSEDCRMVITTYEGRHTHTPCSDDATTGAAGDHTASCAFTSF

The list shows a part of the results.

The target of this assay is OsWRKY34 (Oryza sativa, UniProt Q0JBA9 1-250). In words: protein-binding microarray (RPBM); PBS, 2% BSA, 51.3 ng/ul salmon testes DNA, 50 uM zinc acetate, 200 nM TF, 25 C, 1 h; high values mean tight binding. Particulars: protein: recombinant; tags: N-terminal polyhistidine and DsRed monomer fusion (pET32a); label: CyDye5-dUTP incorporated in the synthesized complementary strand; 3' TTTTT single-stranded linker to array surface; dsDNA, one strand shown. The procedure, abridged: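 For the binding signal, per-feature fluorescence intensity was read in arbitrary units on an Axon 4000B scanner. Before scanning, a 2% BSA-blocked custom Agilent array made double-stranded with Cy5-dUTP was washed after 1 h at 25 °C with 200 nM protein and 50 µM zinc acetate. The proteins were Ni–NTA-purified transcription factors with N-terminal polyhistidine and DsRed fusions, expressed in E. coli BL21-CodonPlus.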
For “TTTTGCCAATTTTTAGCTCATATAGCGATATCGATCTTCTCGGAGTCACCTAGTGCAG”, the binding signal is 8180 fluorescence intensity (a.u.).

On to “CACGCCACCACGCTCTCCGTGACAACGAGGCGCCAACCTCCGGAGTCACCTAGTGCAG”, for which the binding signal is 8090 fluorescence intensity (a.u.).

With “TCATCTCAAACTCACTCGCTCACACATACAAGCGCAGTTACGGAGTCACCTAGTGCAG”, the binding signal was 8050 fluorescence intensity (a.u.).

In the case of “TGCGTAGCTCTATAGTTTTTCAGTCTCGTTAAGCAGTACTCGGAGTCACCTAGTGCAG”, the binding signal was 8120 fluorescence intensity (a.u.).

Consider “AACAAAAAGCATCCATCCATCCATCCATCCATGGCAGATTCGGAGTCACCTAGTGCAG”, for which the binding signal is 8800 fluorescence intensity (a.u.).

As for “TACACCCTTGGGCCCACCTGTCAACCTCTCACCCTATATTCGGAGTCACCTAGTGCAG”, the binding signal is 11900 fluorescence intensity (a.u.).

With “GTTGACTTTTTGATTAACGTTTGACCATTCGTTTTATTCACGGAGTCACCTAGTGCAG”, the binding signal was 9480 fluorescence intensity (a.u.).

In the case of “GTAAAGAACCTTCAATTAGTGTCCTTTGTTCTCATCATTGCGGAGTCACCTAGTGCAG”, the binding signal is 9170 fluorescence intensity (a.u.).

On to “AACATCTGCCTGCTCACTAAAATGATCTACCGGCTTTTTTCGGAGTCACCTAGTGCAG”, for which the binding signal was 8620 fluorescence intensity (a.u.).

As for “TTACTATTGTGGTTTAGATTCGGATTTGCATCTTGTATTTCGGAGTCACCTAGTGCAG”, the binding signal is 10300 fluorescence intensity (a.u.).

For the sequence “TCTCATGAGCTAGCGCGCCCCGCGCGTACAGCCCCGCATGCGGAGTCACCTAGTGCAG”, the binding signal was 9590 fluorescence intensity (a.u.).

Regarding “AGCTAAGACACCACCACCTCCTCACATCTCATCTCATCATCGGAGTCACCTAGTGCAG”, the binding signal is 10500 fluorescence intensity (a.u.).

Consider “TCCGTGTTATCGTTTATATTCCAATAGTCGGTGAATTACTCGGAGTCACCTAGTGCAG”, for which the binding signal was 8170 fluorescence intensity (a.u.).

On to “TACGTGCCGGTCCCCACTACATCCATCGTCCGATCTCGCGCGGAGTCACCTAGTGCAG”, for which the binding signal was 9660 fluorescence intensity (a.u.).

Regarding “GAATCTCTTTTGCAGCAGTTGTACACTTGTATTTTTGCCACGGAGTCACCTAGTGCAG”, the binding signal is 8530 fluorescence intensity (a.u.).

Take “CTCGCACCGCTACACCCGGGCCCACCCCGCCCATCCCCAGCGGAGTCACCTAGTGCAG”: the binding signal is 9710 fluorescence intensity (a.u.).

In the case of “AATACGGGACCTTTTCATTTTTCCTTTTCCGGCGAGACAACGGAGTCACCTAGTGCAG”, the binding signal is 8300 fluorescence intensity (a.u.).

Consider “AGAACTTGAGTAGCTTCTACCTCCATCCAATCCACCAACACGGAGTCACCTAGTGCAG”, for which the binding signal is 8120 fluorescence intensity (a.u.).

In the case of “CCCTCGTGCTACTTTGACCCATGACTACTTCTCTCTCACGCGGAGTCACCTAGTGCAG”, the binding signal was 10200 fluorescence intensity (a.u.).

On to “GCCGGTGGTCTTCCTCGTGCCGAGCCGACGCCACCGCCGGCGGAGTCACCTAGTGCAG”, for which the binding signal was 11000 fluorescence intensity (a.u.).

In the case of “GCGTTTGTGTTCGTGAGTGTGAGAGTATTCCTGGGCTTAGCGGAGTCACCTAGTGCAG”, the binding signal was 9140 fluorescence intensity (a.u.).

In the case of “TTGTTGTTGGTTTTTCCTTTCTTAGGTTGACAGCTTGCCTCGGAGTCACCTAGTGCAG”, the binding signal was 9990 fluorescence intensity (a.u.).

In the case of “CTTGCTACCCACGCGCAGCTCCGCCGCCCTCGATCTCTCTCGGAGTCACCTAGTGCAG”, the binding signal was 10600 fluorescence intensity (a.u.).

As for “GACGTTTTGATATTGACCAAAGTCAAACTGGTTTAAGTTTCGGAGTCACCTAGTGCAG”, the binding signal was 9140 fluorescence intensity (a.u.).

Regarding “GTCATCAGGCCTCGTCCTTCGTCCATGCCAACGCCCGTGACGGAGTCACCTAGTGCAG”, the binding signal was 12800 fluorescence intensity (a.u.).

For “TTATTTTATCTCGTGCTCATGACTGAATCATTTAGCTACCCGGAGTCACCTAGTGCAG”, the binding signal is 8040 fluorescence intensity (a.u.).

With “CTCTGTCCTATTGGAACATTTCTCTGAAGCAACACCATATCGGAGTCACCTAGTGCAG”, the binding signal was 9340 fluorescence intensity (a.u.).

Take “TTTGCCACATCACTATCGATTTCCATCCGTTGGATCACTCCGGAGTCACCTAGTGCAG”: the binding signal is 8040 fluorescence intensity (a.u.).

As to “CCTAATTGTGTTTCTATATGGACTCTATACTCTACTTCTACGGAGTCACCTAGTGCAG”, the binding signal was 10800 fluorescence intensity (a.u.).

Take “TTTCACAATATAAGTCATTCTAGCATTTCCCACATTCATACGGAGTCACCTAGTGCAG”: the binding signal was 8510 fluorescence intensity (a.u.).

Turning to “GGTTTGGGGTGGTTTATTGTACAATAAAGATAAAGTTACCCGGAGTCACCTAGTGCAG”, the binding signal is 19000 fluorescence intensity (a.u.).

Turning to “TATGTGCGTGGTGGGCCCTGATCCTATCCTACGTGTCATACGGAGTCACCTAGTGCAG”, the binding signal is 8740 fluorescence intensity (a.u.).

On to “CATGTCGTCGTCGTGGTGGTGGTGGTGGTGGTGGGGCGGGCGGAGTCACCTAGTGCAG”, for which the binding signal was 43400 fluorescence intensity (a.u.).

As to “CCCACCGCGCTCGCTCCCTCGTCGTCGTCGCAGTCAACCCCGGAGTCACCTAGTGCAG”, the binding signal is 8120 fluorescence intensity (a.u.).

On to “ACCAGATTCACCGTGATTAGTCTCACACTTAATAAATCGACGGAGTCACCTAGTGCAG”, for which the binding signal is 8090 fluorescence intensity (a.u.).

For the sequence “ACCAACACTATTCATCTAAAATTTGTCATTTTATAACCAACGGAGTCACCTAGTGCAG”, the binding signal was 8250 fluorescence intensity (a.u.).

Take “ACTGGTTTATTATCTTTGTTTGTCAAGATCCCAAGAACATCGGAGTCACCTAGTGCAG”: the binding signal is 8720 fluorescence intensity (a.u.).

Take “GCTAGGTCAACTTTGCTCTCAGCTCTCGCTCCCGATGCCACGGAGTCACCTAGTGCAG”: the binding signal was 9760 fluorescence intensity (a.u.).

Take “ACGAACGGTCGAACATATGTTAAAAAGTCAACGGTGTCAACGGAGTCACCTAGTGCAG”: the binding signal was 8910 fluorescence intensity (a.u.).

Regarding “ACTTTTTTTCGGCGGACGATGGGCCCAACACAACATCTCGCGGAGTCACCTAGTGCAG”, the binding signal is 12900 fluorescence intensity (a.u.).

For the sequence “GGCTACCCCATCGCCACCACCACCACCACCGCATCTCTCTCGGAGTCACCTAGTGCAG”, the binding signal was 10900 fluorescence intensity (a.u.).

“AAGTCATTCTAGTATTTCCTACATTCATATTTATGCTAATCGGAGTCACCTAGTGCAG”: the binding signal was 8650 fluorescence intensity (a.u.).
